Here are results for 2 molecules from article PMC9712689.

Chains of the proteins cited; added tags and fusions are not shown. Lines headed by an entry give the natural chain unless they say otherwise; changes in a name come on top.
UniProt Q9HX24: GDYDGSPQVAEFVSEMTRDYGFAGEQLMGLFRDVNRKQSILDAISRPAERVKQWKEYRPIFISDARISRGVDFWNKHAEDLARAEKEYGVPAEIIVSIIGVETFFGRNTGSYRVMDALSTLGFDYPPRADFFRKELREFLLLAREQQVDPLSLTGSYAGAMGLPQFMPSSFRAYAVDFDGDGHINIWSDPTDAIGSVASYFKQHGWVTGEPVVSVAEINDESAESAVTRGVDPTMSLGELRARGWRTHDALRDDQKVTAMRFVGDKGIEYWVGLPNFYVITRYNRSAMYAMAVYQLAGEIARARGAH
UniProt Q9I4G6: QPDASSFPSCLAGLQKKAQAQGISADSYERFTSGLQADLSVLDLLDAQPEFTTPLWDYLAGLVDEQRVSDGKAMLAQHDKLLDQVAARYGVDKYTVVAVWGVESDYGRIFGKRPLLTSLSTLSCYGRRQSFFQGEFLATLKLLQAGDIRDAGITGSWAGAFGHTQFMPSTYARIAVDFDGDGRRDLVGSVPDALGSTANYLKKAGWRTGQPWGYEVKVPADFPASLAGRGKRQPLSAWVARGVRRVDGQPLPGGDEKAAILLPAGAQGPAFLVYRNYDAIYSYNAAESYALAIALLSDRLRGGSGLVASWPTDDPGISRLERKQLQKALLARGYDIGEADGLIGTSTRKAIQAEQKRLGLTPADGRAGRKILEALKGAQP

These are yes or no findings as the source states them, for the method shown. In cells and extracts the contact can be indirect. A yes stands for co-enrichment or nearness to the bait. Other partners may have been found.

The target in assay [1] is SltB1, N-terminal His-tagged construct (P. aeruginosa) (UniProt Q9HX24). The assay can be described thus: affinity purification with mass spectrometry; N-terminally His-tagged LT on Ni-NTA resin incubated with the soluble or the 0.5% NP-40-solubilised membrane proteome of P. aeruginosa PAO1, 4 °C overnight; eluted with 500 mM imidazole; no cross-linker; only the target purified.

Assay [2] concerns the target SltB2, N-terminal His-tagged construct (P. aeruginosa) (UniProt Q9I4G6). The description is as above.

B1: PBP7 (protein, UniProt P72161 24-310)
chain: SPPPKAGLPLQQELASGSALVTDQNTGKVLYSRNPDLVVPIASITKLMTAMVVLDSKLPLDEVLPIAISETSEMRGVFSRVRVGSQISRRDMLLLALMSSENRAAASLAQNYPGGKNAFVKAMNAKAHALGMKNTRYVEPTGLSLHNVSTARDLTRLLVASRQYPLLSQWSTTPEKTVAFRHPNYTLGFRNTNHLINNKTWNIQLTKTGFTNEAGHCLVMRTTINRSPVNLVVLDAFGKYTHFADATRLRRWLETGQVTAIPAAAKAYRLQRDRERGLGQPVAQAVR
For the molecule B1, the binding entry in assay [1] and in assay [2] was “binds” in each case.

B2: RlpA (rare lipoprotein A) (protein, UniProt Q9X6V6 27-342)
chain: CSSKAPQQPARQAGISGPGDYSRPHRDGAPWWDVDVSRIPDAVPMPHNGSVKANPYTVLGKTYYPMNDARAYRMVGTASWYGTKFHGQATANGETYDLYGMTAAHKTLPLPSYVRVTNLDNGKSVIVRVNDRGPFYSDRVIDLSFAAAKKLGYAETGTARVKVEGIDPVQWWAQRGRPAPMVLAQPKQAVAQAAPAAAQTQAVAMAQPIETYTPPPAQHAAAVLPVQIDSKKNASLPADGLYLQVGAFANPDAAELLKAKLSGVTAAPVFISSVVRNQQILHRVRLGPIGSADEVSRTQDSIRVANLGQPTLVRPD
In the case of B2, the binding entry in assay [1] and in assay [2] was “binds” in each case.
